The supplement of paper PMC12823440, “Inhibitors supercharge kinase turnover through native proteolytic circuits” (Nature, 2025)
Counter-ions that a name gives are not always drawn. The list shows a part of the results. Hit calls seldom repeat between salt and free forms of one compound.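 Kinases were expressed as nanoluciferase fusions in K562 cells and luminescence was read every 4 h between 2 and 18 h as percent of control, DMSO set to 100% and a positive control to 0%. A time point counts as decreased when the signal drops significantly (2 sigma). The hit call is the authors' own, does not follow from the count of time points alone, and its rule is not shown.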

Sequences of proteins named here, by UniProt entry; tags and fusion partners are left off. A change or cut given only in a name is not applied to a line headed by its entry.
UniProt Q9Y616: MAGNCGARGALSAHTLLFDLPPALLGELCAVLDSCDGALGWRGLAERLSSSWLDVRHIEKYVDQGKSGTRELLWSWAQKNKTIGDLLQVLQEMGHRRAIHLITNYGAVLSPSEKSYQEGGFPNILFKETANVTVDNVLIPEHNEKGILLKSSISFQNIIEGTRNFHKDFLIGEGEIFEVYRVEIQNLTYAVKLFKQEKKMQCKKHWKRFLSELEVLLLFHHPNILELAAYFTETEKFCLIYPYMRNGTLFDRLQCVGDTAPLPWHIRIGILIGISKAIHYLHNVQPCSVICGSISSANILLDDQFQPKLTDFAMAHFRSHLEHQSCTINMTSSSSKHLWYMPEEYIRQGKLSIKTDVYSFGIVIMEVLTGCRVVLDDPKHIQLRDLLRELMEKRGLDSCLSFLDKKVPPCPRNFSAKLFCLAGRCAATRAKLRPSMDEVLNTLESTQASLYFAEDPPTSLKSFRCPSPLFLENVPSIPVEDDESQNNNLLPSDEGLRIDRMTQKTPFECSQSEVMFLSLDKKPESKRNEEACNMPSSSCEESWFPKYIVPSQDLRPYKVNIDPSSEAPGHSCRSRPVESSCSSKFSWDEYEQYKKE
UniProt P23458: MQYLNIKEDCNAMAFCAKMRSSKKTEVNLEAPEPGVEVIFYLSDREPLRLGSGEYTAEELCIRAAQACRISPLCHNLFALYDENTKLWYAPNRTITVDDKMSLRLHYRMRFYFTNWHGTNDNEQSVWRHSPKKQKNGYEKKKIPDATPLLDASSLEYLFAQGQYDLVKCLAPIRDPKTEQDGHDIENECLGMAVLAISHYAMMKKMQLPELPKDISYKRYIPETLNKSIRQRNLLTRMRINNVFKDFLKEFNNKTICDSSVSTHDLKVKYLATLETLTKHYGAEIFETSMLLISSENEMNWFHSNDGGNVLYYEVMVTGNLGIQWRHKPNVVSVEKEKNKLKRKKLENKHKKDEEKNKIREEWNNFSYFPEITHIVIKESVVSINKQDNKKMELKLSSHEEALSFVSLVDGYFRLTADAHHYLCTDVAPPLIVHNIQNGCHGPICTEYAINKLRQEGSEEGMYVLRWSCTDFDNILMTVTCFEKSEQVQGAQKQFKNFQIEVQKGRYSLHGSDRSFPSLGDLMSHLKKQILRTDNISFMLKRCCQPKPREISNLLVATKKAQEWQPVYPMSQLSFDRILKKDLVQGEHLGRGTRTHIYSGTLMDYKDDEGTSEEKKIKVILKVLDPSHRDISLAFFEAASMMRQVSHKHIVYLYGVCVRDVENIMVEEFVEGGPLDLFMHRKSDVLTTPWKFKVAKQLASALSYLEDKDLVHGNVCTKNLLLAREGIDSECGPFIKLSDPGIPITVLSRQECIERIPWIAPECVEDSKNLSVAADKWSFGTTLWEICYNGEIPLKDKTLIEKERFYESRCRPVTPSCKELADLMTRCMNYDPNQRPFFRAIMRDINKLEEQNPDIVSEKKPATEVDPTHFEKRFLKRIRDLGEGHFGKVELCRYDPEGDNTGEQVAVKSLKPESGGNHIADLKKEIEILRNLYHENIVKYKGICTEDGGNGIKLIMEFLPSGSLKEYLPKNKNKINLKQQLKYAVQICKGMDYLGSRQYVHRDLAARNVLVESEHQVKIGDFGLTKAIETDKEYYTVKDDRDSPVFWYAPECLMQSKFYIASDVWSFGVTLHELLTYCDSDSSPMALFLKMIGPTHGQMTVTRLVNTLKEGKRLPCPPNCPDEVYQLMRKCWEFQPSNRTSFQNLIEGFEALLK
UniProt P06239: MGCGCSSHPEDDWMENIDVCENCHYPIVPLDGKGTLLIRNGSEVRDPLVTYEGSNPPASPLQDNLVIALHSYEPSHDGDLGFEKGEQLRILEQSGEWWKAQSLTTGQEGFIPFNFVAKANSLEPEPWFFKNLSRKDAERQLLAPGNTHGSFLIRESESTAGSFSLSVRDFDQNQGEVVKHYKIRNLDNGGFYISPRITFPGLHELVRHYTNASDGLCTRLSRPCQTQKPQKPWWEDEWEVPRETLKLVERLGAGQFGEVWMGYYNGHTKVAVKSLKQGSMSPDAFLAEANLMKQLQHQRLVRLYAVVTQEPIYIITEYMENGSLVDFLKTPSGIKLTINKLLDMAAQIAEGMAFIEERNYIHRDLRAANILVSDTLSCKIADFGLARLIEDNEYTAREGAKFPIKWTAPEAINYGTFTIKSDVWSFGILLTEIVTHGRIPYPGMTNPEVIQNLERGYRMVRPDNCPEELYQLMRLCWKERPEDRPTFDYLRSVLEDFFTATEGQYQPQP
UniProt P53667: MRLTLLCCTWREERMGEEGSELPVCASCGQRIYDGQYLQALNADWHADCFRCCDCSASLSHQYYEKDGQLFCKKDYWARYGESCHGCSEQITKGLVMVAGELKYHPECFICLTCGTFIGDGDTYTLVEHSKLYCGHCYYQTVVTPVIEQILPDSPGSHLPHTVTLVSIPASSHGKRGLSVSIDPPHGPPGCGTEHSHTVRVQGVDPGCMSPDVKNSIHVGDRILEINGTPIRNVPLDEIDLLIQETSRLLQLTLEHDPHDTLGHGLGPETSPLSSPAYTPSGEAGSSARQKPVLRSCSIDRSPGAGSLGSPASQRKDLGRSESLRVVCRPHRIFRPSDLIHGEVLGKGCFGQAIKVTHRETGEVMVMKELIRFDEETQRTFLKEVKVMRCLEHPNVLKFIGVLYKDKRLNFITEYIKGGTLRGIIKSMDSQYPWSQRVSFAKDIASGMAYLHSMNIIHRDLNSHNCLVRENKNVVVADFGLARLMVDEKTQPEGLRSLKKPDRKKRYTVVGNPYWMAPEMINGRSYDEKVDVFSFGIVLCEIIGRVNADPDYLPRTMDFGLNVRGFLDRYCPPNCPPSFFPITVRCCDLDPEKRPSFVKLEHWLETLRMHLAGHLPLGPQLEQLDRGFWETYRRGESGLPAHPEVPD
UniProt P53671: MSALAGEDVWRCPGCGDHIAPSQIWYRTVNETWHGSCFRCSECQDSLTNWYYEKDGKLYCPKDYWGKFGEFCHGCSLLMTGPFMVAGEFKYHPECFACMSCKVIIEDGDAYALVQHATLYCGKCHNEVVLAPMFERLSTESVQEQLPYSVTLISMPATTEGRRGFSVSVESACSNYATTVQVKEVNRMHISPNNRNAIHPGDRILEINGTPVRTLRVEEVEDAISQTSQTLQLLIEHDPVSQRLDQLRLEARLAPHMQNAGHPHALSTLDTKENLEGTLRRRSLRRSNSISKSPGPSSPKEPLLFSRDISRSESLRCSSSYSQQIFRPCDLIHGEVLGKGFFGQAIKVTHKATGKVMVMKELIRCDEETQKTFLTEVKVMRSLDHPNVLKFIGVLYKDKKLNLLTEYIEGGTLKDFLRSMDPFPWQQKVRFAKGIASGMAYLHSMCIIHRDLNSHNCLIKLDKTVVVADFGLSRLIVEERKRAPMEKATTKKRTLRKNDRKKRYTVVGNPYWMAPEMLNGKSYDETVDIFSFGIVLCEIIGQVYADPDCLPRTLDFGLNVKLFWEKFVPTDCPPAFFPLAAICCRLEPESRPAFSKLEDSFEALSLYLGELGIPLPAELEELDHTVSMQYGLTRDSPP
UniProt Q8IWU2: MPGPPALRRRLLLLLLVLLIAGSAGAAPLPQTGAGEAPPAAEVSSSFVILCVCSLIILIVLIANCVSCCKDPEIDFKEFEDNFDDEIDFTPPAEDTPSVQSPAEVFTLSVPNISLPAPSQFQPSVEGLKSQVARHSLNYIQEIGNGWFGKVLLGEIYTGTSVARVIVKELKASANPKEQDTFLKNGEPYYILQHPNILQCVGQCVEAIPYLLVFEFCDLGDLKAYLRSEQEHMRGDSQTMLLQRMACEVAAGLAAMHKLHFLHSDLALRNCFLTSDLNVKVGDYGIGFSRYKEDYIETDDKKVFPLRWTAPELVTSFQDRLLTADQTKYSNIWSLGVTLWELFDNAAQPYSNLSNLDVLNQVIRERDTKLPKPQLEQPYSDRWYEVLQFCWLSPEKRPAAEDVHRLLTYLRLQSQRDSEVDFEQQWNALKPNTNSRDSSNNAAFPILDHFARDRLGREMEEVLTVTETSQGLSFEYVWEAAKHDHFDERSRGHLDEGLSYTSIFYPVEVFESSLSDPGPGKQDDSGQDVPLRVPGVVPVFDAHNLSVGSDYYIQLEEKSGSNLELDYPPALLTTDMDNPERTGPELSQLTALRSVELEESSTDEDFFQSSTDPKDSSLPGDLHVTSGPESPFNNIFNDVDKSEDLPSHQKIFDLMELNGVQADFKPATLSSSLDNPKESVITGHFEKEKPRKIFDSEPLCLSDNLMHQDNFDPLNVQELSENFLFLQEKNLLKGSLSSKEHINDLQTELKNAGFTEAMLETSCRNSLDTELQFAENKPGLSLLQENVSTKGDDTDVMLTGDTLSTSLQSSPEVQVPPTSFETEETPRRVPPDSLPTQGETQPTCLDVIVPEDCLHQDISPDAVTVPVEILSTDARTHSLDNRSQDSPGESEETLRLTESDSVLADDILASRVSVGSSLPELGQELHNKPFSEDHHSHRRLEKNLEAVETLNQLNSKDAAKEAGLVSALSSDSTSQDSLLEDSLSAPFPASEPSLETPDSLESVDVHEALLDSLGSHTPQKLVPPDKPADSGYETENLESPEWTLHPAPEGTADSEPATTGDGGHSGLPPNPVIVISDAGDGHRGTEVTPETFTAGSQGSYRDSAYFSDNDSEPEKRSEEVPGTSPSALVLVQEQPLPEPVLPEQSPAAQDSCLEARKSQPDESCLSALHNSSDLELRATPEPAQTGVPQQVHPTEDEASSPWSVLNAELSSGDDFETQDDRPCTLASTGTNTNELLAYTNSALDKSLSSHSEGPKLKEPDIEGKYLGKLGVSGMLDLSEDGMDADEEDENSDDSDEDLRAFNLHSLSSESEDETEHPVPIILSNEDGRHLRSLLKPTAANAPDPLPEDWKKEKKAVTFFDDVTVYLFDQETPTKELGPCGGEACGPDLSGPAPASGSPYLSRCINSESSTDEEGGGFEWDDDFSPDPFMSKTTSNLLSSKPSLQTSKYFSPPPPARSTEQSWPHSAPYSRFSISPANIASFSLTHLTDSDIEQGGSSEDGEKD
UniProt P07948: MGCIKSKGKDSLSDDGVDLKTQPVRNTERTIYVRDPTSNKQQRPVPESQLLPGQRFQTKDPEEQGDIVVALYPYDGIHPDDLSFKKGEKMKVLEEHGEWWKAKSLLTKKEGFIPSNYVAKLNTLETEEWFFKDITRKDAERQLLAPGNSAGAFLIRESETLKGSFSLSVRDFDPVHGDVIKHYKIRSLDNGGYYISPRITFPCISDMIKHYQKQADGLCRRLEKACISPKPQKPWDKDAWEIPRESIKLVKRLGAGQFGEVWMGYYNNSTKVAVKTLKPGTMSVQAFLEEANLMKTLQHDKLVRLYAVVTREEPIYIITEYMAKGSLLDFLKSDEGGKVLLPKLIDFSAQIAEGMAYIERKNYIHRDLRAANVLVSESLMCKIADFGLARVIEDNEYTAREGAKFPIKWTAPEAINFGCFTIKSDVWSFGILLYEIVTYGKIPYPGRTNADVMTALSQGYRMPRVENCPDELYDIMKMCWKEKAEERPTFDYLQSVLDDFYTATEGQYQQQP
UniProt Q12851: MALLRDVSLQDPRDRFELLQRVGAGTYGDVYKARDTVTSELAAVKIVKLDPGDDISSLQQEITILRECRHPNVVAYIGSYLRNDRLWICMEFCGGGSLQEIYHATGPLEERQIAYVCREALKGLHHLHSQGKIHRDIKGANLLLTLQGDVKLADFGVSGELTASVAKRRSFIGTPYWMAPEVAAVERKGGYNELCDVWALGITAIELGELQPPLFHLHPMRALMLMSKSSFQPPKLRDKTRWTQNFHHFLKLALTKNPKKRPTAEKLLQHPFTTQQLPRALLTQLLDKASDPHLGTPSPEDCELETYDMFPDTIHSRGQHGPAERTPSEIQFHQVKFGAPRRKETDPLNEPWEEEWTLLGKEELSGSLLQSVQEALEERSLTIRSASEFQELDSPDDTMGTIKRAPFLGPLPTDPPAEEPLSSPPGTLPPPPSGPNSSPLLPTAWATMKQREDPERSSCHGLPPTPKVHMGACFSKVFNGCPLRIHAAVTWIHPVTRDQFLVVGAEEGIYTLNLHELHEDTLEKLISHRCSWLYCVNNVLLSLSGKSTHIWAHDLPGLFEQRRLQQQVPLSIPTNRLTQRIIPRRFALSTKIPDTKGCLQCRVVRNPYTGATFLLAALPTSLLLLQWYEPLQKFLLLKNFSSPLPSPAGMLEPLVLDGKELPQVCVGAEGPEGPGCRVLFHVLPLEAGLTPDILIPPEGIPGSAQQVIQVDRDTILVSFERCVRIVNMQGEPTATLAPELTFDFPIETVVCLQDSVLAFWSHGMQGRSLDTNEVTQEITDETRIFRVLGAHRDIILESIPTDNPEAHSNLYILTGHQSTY

Columns and labels:
Experiment in all cases: kinase-Nluc reporter destabilization hit call (1 = scored as downregulated) (binary); higher = compound decreases kinase abundance
Details in all cases: K562; 2-18 h
IRAK3 = IRAK3 (UniProt Q9Y616)
JAK1 = JAK1 (UniProt P23458)
LCK = LCK (UniProt P06239)
LIMK1 = LIMK1 (UniProt P53667)
LIMK2 = LIMK2 (UniProt P53671)
LMTK2 = LMTK2 (UniProt Q8IWU2)
LYN = LYN (UniProt P07948)
MAP2K1 = MAP2K1 (UniProt Q02750)
MAP2K2 = MAP2K2 (UniProt P36507)
MAP4K2 = MAP4K2 (UniProt Q12851)

Measured: kinase-Nluc reporter destabilization hit call

Cn1cc(-c2cnc3cnn(S(=O)(=O)c4cnc5ccc(-c6cnn(C)c6)cn45)c3c2)cn1 [Glumetinib] (10 µM)
inactive: IRAK3 = 0 | JAK1 = 0 | LCK 0 | LIMK1 = 0 | LIMK2 = 0 | LMTK2 = 0 | LYN 0 | MAP2K1 = 0 | MAP2K2 = 0 | MAP4K2 = 0

CN(C)CCC=C1c2ccccc2CCc2ccccc21 [Amitriptyline (hydrochloride)] (2.5 µM)
inactive: IRAK3 = 0 | JAK1 = 0 | LCK 0 | LIMK1 = 0 | LIMK2 = 0 | LMTK2 = 0 | LYN 0 | MAP2K1 = 0 | MAP2K2 = 0 | MAP4K2 = 0

N[C@@H](CCC(=O)O)C(=O)N[C@@H](Cc1c[nH]c2ccccc12)C(=O)O [Oglufanide] (10 µM)
inactive: IRAK3 = 0 | JAK1 = 0 | LCK 0 | LIMK1 = 0 | LIMK2 = 0 | LMTK2 = 0 | LYN 0 | MAP2K1 = 0 | MAP2K2 = 0 | MAP4K2 = 0

FC(F)(F)c1ccc(/C=C/c2nc(COc3ccc(CCCCn4ccnn4)cc3)co2)cc1 [Mubritinib] (10 µM)
inactive: IRAK3 = 0 | JAK1 = 0 | LCK 0 | LIMK1 = 0 | LIMK2 = 0 | LMTK2 = 0 | LYN 0 | MAP2K1 = 0 | MAP2K2 = 0 | MAP4K2 = 0

CCCNC(=O)Nc1ccc(Oc2ncnc3cc(OC)c(OC)cc23)cc1Cl (2.5 µM)
inactive: IRAK3 = 0 | JAK1 = 0 | LCK 0 | LIMK1 = 0 | LIMK2 = 0 | LMTK2 = 0 | LYN 0 | MAP2K1 = 0 | MAP2K2 = 0 | MAP4K2 = 0

NC(=S)n1[nH]c(-c2ccc([N+](=O)[O-])cc2)c(N=Nc2cccc(Cl)c2)c1=O (2.5 µM)
inactive: IRAK3 = 0 | JAK1 = 0 | LCK 0 | LIMK1 = 0 | LIMK2 = 0 | LMTK2 = 0 | LYN 0 | MAP2K1 = 0 | MAP2K2 = 0 | MAP4K2 = 0

COc1ccc(S(=O)(=O)NCc2ccc(C(=O)NCCc3ccc(Cl)cn3)cc2)cc1 (10 µM)
inactive: IRAK3 = 0 | JAK1 = 0 | LCK 0 | LIMK1 = 0 | LIMK2 = 0 | LMTK2 = 0 | LYN 0 | MAP2K1 = 0 | MAP2K2 = 0 | MAP4K2 = 0

O=C(Nc1nc2ccc(NC(=O)C34CC5CC(CC(C5)C3)C4)cc2s1)c1ccccc1 (10 µM)
inactive: IRAK3 = 0 | JAK1 = 0 | LCK 0 | LIMK1 = 0 | LIMK2 = 0 | LMTK2 = 0 | LYN 0 | MAP2K1 = 0 | MAP2K2 = 0 | MAP4K2 = 0

CCc1ccc(OCC(=O)Nc2ccc(F)c([N+](=O)[O-])c2)cc1 (10 µM)
inactive: IRAK3 = 0 | JAK1 = 0 | LCK 0 | LIMK1 = 0 | LIMK2 = 0 | LMTK2 = 0 | LYN 0 | MAP2K1 = 0 | MAP2K2 = 0 | MAP4K2 = 0

O=C1NC(=Nc2c(Cl)cccc2Cl)S/C1=C\c1ccc2nccnc2c1 (2.5 µM)
inactive: IRAK3 = 0 | JAK1 = 0 | LCK 0 | LIMK1 = 0 | LIMK2 = 0 | LMTK2 = 0 | LYN 0 | MAP2K1 = 0 | MAP2K2 = 0 | MAP4K2 = 0

CC(=O)c1c(C)c2cnc(Nc3ccc(N4CCN(C(=O)CNc5cccc6c5C(=O)N(C5CCC(=O)NC5=O)C6=O)CC4)cn3)nc2n(C2CCCC2)c1=O (stereo not given) (10 µM)
inactive: IRAK3 = 0 | JAK1 = 0 | LCK 0 | LIMK1 = 0 | LIMK2 = 0 | LMTK2 = 0 | LYN 0 | MAP2K1 = 0 | MAP2K2 = 0 | MAP4K2 = 0

C=CC(=O)N1C[C@H](COc2nc(Nc3cnn(C)c3)nc3[nH]cc(Cl)c23)[C@@H](OC)C1 (2.5 µM)
inactive: IRAK3 = 0 | JAK1 = 0 | LCK 0 | LIMK1 = 0 | LIMK2 = 0 | LMTK2 = 0 | LYN 0 | MAP2K1 = 0 | MAP2K2 = 0 | MAP4K2 = 0

CCc1cncnc1N1CCN(Cc2nc3ccc(C(F)(F)F)cc3[nH]2)CC1 (10 µM)
inactive: IRAK3 = 0 | JAK1 = 0 | LCK 0 | LIMK1 = 0 | LIMK2 = 0 | LMTK2 = 0 | LYN 0 | MAP2K1 = 0 | MAP2K2 = 0 | MAP4K2 = 0

Cc1cccc2c3c(ccc12)C(=O)C1=C(OCC1C)C3=O (stereo not given) [Dihydroisotanshinone I] (2.5 µM)
inactive: IRAK3 = 0 | JAK1 = 0 | LCK 0 | LIMK1 = 0 | LIMK2 = 0 | LMTK2 = 0 | LYN 0 | MAP2K1 = 0 | MAP2K2 = 0 | MAP4K2 = 0

CCN(CC)CCC(=O)N1N=C(c2c(-c3ccccc3)c3cc(Br)ccc3[nH]c2=O)CC1c1ccc(Br)cc1 (stereo not given) (2.5 µM)
inactive: IRAK3 = 0 | JAK1 = 0 | LCK 0 | LIMK1 = 0 | LIMK2 = 0 | LMTK2 = 0 | LYN 0 | MAP2K1 = 0 | MAP2K2 = 0 | MAP4K2 = 0

CC(C)=CCc1c(-c2ccc(O)cc2O)oc2c3c(cc(O)c2c1=O)OC(C)(C)C=C3 [Morusin] (2.5 µM)
inactive: IRAK3 = 0 | JAK1 = 0 | LCK 0 | LIMK1 = 0 | LIMK2 = 0 | LMTK2 = 0 | LYN 0 | MAP2K1 = 0 | MAP2K2 = 0 | MAP4K2 = 0

O=C(NCc1cccc(O)c1)Nc1nc(-c2ccncc2)cs1 (10 µM)
inactive: IRAK3 = 0 | JAK1 = 0 | LCK 0 | LIMK1 = 0 | LIMK2 = 0 | LMTK2 = 0 | LYN 0 | MAP2K1 = 0 | MAP2K2 = 0 | MAP4K2 = 0

C#Cc1cccc(Nc2ncnc3cc(OC)c(OCCCCCCC(=O)NO)cc23)c1 (2.5 µM)
inactive: IRAK3 = 0 | JAK1 = 0 | LCK 0 | LIMK1 = 0 | LIMK2 = 0 | LMTK2 = 0 | LYN 0 | MAP2K1 = 0 | MAP2K2 = 0 | MAP4K2 = 0

C=CC(=O)Nc1cc(-n2c(=O)ccc3cnc4ccc(-c5ccc(NS(C)(=O)=O)cc5)cc4c32)ccc1C (10 µM)
inactive: IRAK3 = 0 | JAK1 = 0 | LCK 0 | LIMK1 = 0 | LIMK2 = 0 | LMTK2 = 0 | LYN 0 | MAP2K1 = 0 | MAP2K2 = 0 | MAP4K2 = 0

Cc1cc(C)nc(NS(=O)(=O)c2ccc(NC(=S)NC(=O)COc3ccc(Br)cc3Cl)cc2)n1 (2.5 µM)
inactive: IRAK3 = 0 | JAK1 = 0 | LCK 0 | LIMK1 = 0 | LIMK2 = 0 | LMTK2 = 0 | LYN 0 | MAP2K1 = 0 | MAP2K2 = 0 | MAP4K2 = 0

CC(C)c1cc(/C=C(\C#N)C(=O)NCCCc2ccccc2)cc(C(C)C)c1O (10 µM)
inactive: IRAK3 = 0 | JAK1 = 0 | LCK 0 | LIMK1 = 0 | LIMK2 = 0 | LMTK2 = 0 | LYN 0 | MAP2K1 = 0 | MAP2K2 = 0 | MAP4K2 = 0

O=[N+]([O-])c1ccc2c(c1)S(=O)(=O)C=C2 [Stattic] (2.5 µM)
inactive: IRAK3 = 0 | JAK1 = 0 | LCK 0 | LIMK1 = 0 | LIMK2 = 0 | LMTK2 = 0 | LYN 0 | MAP2K1 = 0 | MAP2K2 = 0 | MAP4K2 = 0

Some of these compounds in order of number of heavy atoms, falling:
CC(=O)c1c(C)c2cnc(Nc3ccc(N4CCN(C(=O)CNc5cccc6c5C(=O)N(C5CCC(=O)NC5=O)C6=O)CC4)cn3)nc2n(C2CCCC2)c1=O (stereo not given) (10 µM)
inactive: IRAK3 = 0 | JAK1 = 0 | LCK 0 | LIMK1 = 0 | LIMK2 = 0 | LMTK2 = 0 | LYN 0 | MAP2K1 = 0 | MAP2K2 = 0 | MAP4K2 = 0

Cn1cc(-c2cnc3cnn(S(=O)(=O)c4cnc5ccc(-c6cnn(C)c6)cn45)c3c2)cn1 [Glumetinib] (10 µM)
inactive: IRAK3 = 0 | JAK1 = 0 | LCK 0 | LIMK1 = 0 | LIMK2 = 0 | LMTK2 = 0 | LYN 0 | MAP2K1 = 0 | MAP2K2 = 0 | MAP4K2 = 0

CC(C)=CCc1c(-c2ccc(O)cc2O)oc2c3c(cc(O)c2c1=O)OC(C)(C)C=C3 [Morusin] (2.5 µM)
inactive: IRAK3 = 0 | JAK1 = 0 | LCK 0 | LIMK1 = 0 | LIMK2 = 0 | LMTK2 = 0 | LYN 0 | MAP2K1 = 0 | MAP2K2 = 0 | MAP4K2 = 0

N[C@@H](CCC(=O)O)C(=O)N[C@@H](Cc1c[nH]c2ccccc12)C(=O)O [Oglufanide] (10 µM)
inactive: IRAK3 = 0 | JAK1 = 0 | LCK 0 | LIMK1 = 0 | LIMK2 = 0 | LMTK2 = 0 | LYN 0 | MAP2K1 = 0 | MAP2K2 = 0 | MAP4K2 = 0

CCc1ccc(OCC(=O)Nc2ccc(F)c([N+](=O)[O-])c2)cc1 (10 µM)
inactive: IRAK3 = 0 | JAK1 = 0 | LCK 0 | LIMK1 = 0 | LIMK2 = 0 | LMTK2 = 0 | LYN 0 | MAP2K1 = 0 | MAP2K2 = 0 | MAP4K2 = 0

Remaining list, next part

O=C1NC(=O)/C(=C/c2ccc3nccc(-c4ccncc4)c3c2)S1 (10 µM)
inactive: IRAK3 = 0 | JAK1 = 0 | LCK 0 | LIMK1 = 0 | LIMK2 = 0 | LMTK2 = 0 | LYN 0 | MAP2K1 = 0 | MAP2K2 = 0 | MAP4K2 = 0

CNC(=O)c1ccccc1Nc1nc(Nc2ccc3c(c2OC)CCC[C@H](N2CCN(CCO)CC2)C3)ncc1Cl (10 µM)
inactive: IRAK3 = 0 | JAK1 = 0 | LCK 0 | LIMK1 = 0 | LIMK2 = 0 | LMTK2 = 0 | LYN 0 | MAP2K1 = 0 | MAP2K2 = 0 | MAP4K2 = 0

CNc1nc(Nc2ccc(C(=O)N3CCOCC3)cc2OC)ncc1Cl (2.5 µM)
inactive: IRAK3 = 0 | JAK1 = 0 | LCK 0 | LIMK1 = 0 | LIMK2 = 0 | LMTK2 = 0 | LYN 0 | MAP2K1 = 0 | MAP2K2 = 0 | MAP4K2 = 0

NC(=O)N1CCC(CC(=O)N2CCC([C@H]3c4ncc(Br)cc4CCc4cc(Cl)cc(Br)c43)CC2)CC1 [Lonafarnib] (2.5 µM)
inactive: IRAK3 = 0 | JAK1 = 0 | LCK 0 | LIMK1 = 0 | LIMK2 = 0 | LMTK2 = 0 | LYN 0 | MAP2K1 = 0 | MAP2K2 = 0 | MAP4K2 = 0

N#Cc1ccnc(Nc2cc(C3CCN(C4COC4)CC3)cc(N3CCC(F)(F)C3)n2)c1 (2.5 µM)
inactive: IRAK3 = 0 | JAK1 = 0 | LCK 0 | LIMK1 = 0 | LIMK2 = 0 | LMTK2 = 0 | LYN 0 | MAP2K1 = 0 | MAP2K2 = 0 | MAP4K2 = 0
